# Data: patent US20120094843A1
# No constants are given. Whether binding was seen depends on the method and setting. In cells and extracts the contact can be indirect. Some results given as binding are weak or reduced against the parent protein; the word gives no strength. Where a sequence is shown, tags or fusion partners need not be part of it.
# B1: FLAG-tagged FAM83A (protein, not shown: small tags and cut ends)
# chain: MSRSRHLGKIRKRLEDVKSQWVRPARADFSDNESARLATDALLDGGSEAYWRVLSQEGEVDFLSSVEAQYIQAQAREPPCPPDTLGGAEAGPKGLDSSSLQSGTYFPVASEGSEPALLHSWASAEKPYLKEKSSATVYFQTVKHNNIRDLVRRCITRTSQVLVILMDVFTDVEIFCDILEAANKRGVFVCVLLDQGGVKLFQEMCDKVQISDSHLKNISIRSVEGEIYCAKSGRKFAGQIREKFIISDWRFVLSGSYSFTWLCGHVHRNILSKFTGQAVELFDEEFRHLYASSKPVMGLKSPRLVAPVPPGAAPANGRLSSSSGSASDRTSSNPFSGRSAGSHPGTRSVSASSGPCSPAAPHPPPPPRFQPHQGPWGAPSPQAHLSPRPHDGPPAAVYSNLGAYRPTRLQLEQLGLVPRLTPTWRPFLQASPHF
# modifications: tyrosine-phosphorylated on EGF stimulation; sites not given
# Target: c-Raf (UniProt P04049)
# Test: co-immunoprecipitation of FAM83A-FLAG from T4-2 cell lysates, western blot with anti-c-Raf antibody
binder,measurement,value
B1,binding,binds
